{"source": "patent US20260193226A1", "about": "“MICROBIOCIDAL TETRAHYDROISOQUINOLINE DERIVATIVES” (SYNGENTA CROP PROTECTION AG, priority 2022, published 2026)", "key": {"[1]": {"system": "Puccinia recondita f. sp. tritici", "experiment": "Puccinia recondita f. sp. tritici / wheat / leaf disc preventative (brown rust)", "assay_type": "in vivo", "settings": "200 ppm, compared to untreated control"}, "[2]": {"system": "Botryotinia fuckeliana (Botrytis cinerea)", "experiment": "Botryotinia fuckeliana (Botrytis cinerea) / liquid culture (gray mould)", "assay_type": "cell-based", "settings": "20 ppm, compared to untreated control"}, "[3]": {"system": "Thanatephorus cucumeris (Rhizoctonia solani)", "experiment": "Thanatephorus cucumeris (Rhizoctonia solani) / liquid culture (foot rot, damping-off)", "assay_type": "cell-based", "settings": "20 ppm, compared to untreated control"}, "[4]": {"system": "Phaeosphaeria nodorum (Septoria nodorum)", "experiment": "Phaeosphaeria nodorum (Septoria nodorum) / wheat / leaf disc preventative (glume blotch)", "assay_type": "in vivo", "settings": "200 ppm, compared to untreated control"}, "[5]": {"system": "Blumeria graminis f. sp. tritici (Erysiphe graminis f. sp. tritici)", "experiment": "Blumeria graminis f. sp. tritici / wheat / leaf disc preventative (powdery mildew on wheat)", "assay_type": "in vivo", "settings": "200 ppm, compared to untreated control"}}, "note": "Some results were stated once for a whole list of compounds, not compound by compound.", "data": [{"compound": "CCCCCCC(=O)N1C[C@H](c2cnn(C)c2C)c2ccccc2[C@@H]1C", "note": "(racemic) [Compound P-11, 1-[rac-(1S,4S)-4-(1,5-dimethylpyrazol-4-yl)-1-methyl-3,4-dihydro-1H-isoquinolin-2-yl]heptan-1-one]", "values": [{"measurement": "control of Puccinia recondita f. sp. tritici", "setting": "[1]", "value": "at least 80%"}, {"measurement": "control of Botryotinia fuckeliana", "setting": "[2]", "value": "at least 80%"}, {"measurement": "control of Thanatephorus cucumeris", "setting": "[3]", "value": "at least 80%"}, {"measurement": "control of Phaeosphaeria nodorum", "setting": "[4]", "value": "at least 80%"}]}, {"compound": "Cc1c([C@H]2CN(C(=O)OCCC3CCCCC3)[C@@H](C)c3ccccc32)cnn1C", "note": "(racemic) [Compound P-16, 2-cyclohexylethyl rac-(1S,4S)-4-(1,5-dimethylpyrazol-4-yl)-1-methyl-3,4-dihydro-1H-isoquinoline-2-carboxylate]", "values": [{"measurement": "control of Botryotinia fuckeliana", "setting": "[2]", "value": "at least 80%"}]}, {"compound": "CCCCCOC(=O)N1C[C@H](c2cnn(C)c2C)c2ccccc2[C@@H]1C", "note": "(racemic) [Compound P-28, pentyl rac-(1S,4S)-4-(1,5-dimethylpyrazol-4-yl)-1-methyl-3,4-dihydro-1H-isoquinoline-2-carboxylate]", "values": [{"measurement": "control of Thanatephorus cucumeris", "setting": "[3]", "value": "at least 80%"}, {"measurement": "control of Phaeosphaeria nodorum", "setting": "[4]", "value": "at least 80%"}]}, {"compound": "Cc1c([C@H]2CN(C(=O)CCCCCC(F)(F)F)[C@@H](C)c3ccccc32)cnn1C", "note": "(racemic) [Compound P-29, 7,7,7-trifluoro-1-[rac-(1S,4S)-4-(1,5-dimethylpyrazol-4-yl)-1-methyl-3,4-dihydro-1H-isoquinolin-2-yl]heptan-1-one]", "values": [{"measurement": "control of Blumeria graminis f. sp. tritici", "setting": "[5]", "value": "at least 80%"}, {"measurement": "control of Botryotinia fuckeliana", "setting": "[2]", "value": "at least 80%"}, {"measurement": "control of Thanatephorus cucumeris", "setting": "[3]", "value": "at least 80%"}]}, {"compound": "Cc1c([C@H]2CN(C(=O)CCc3ccc(F)cc3F)[C@@H](C)c3ccccc32)cnn1C", "note": "(racemic) [Compound P-45, 3-(2,4-difluorophenyl)-1-[rac-(1S,4S)-4-(1,5-dimethylpyrazol-4-yl)-1-methyl-3,4-dihydro-1H-isoquinolin-2-yl]propan-1-one]", "values": [{"measurement": "control of Puccinia recondita f. sp. tritici", "setting": "[1]", "value": "at least 80%"}]}, {"compound": "CCCCCCC(=O)N1Cc2ccccc2C(c2cnn(C)c2C)C1", "note": "(centres unmarked) [Compound P-4, 1-[4-(1,5-dimethylpyrazol-4-yl)-3,4-dihydro-1H-isoquinolin-2-yl]heptan-1-one]", "values": [{"measurement": "control of Thanatephorus cucumeris", "setting": "[3]", "value": "at least 80%"}]}, {"compound": "Cc1c(C2CN(C(=O)CCc3ccc(F)cc3F)Cc3ccccc32)cnn1C", "note": "(centres unmarked) [Compound P-6, 3-(2,4-difluorophenyl)-1-[4-(1,5-dimethylpyrazol-4-yl)-3,4-dihydro-1H-isoquinolin-2-yl]propan-1-one]", "values": [{"measurement": "control of Phaeosphaeria nodorum", "setting": "[4]", "value": "at least 80%"}]}, {"compound": "Cc1c(C2CN(C(=O)CCc3ccc(F)cc3)Cc3ccccc32)cnn1C", "note": "(centres unmarked) [Compound P-7, 1-[4-(1,5-dimethylpyrazol-4-yl)-3,4-dihydro-1H-isoquinolin-2-yl]-3-(4-fluorophenyl)propan-1-one]", "values": [{"measurement": "control of Phaeosphaeria nodorum", "setting": "[4]", "value": "at least 80%"}]}, {"compound": "CCCCCCCC(=O)N1Cc2ccccc2C(c2cnn(C)c2C)C1", "note": "(centres unmarked) [Compound P-10, 1-[4-(1,5-dimethylpyrazol-4-yl)-3,4-dihydro-1H-isoquinolin-2-yl]octan-1-one]", "values": [{"measurement": "control of Thanatephorus cucumeris", "setting": "[3]", "value": "at least 80%"}]}, {"compound": "CCCCCNC(=O)N1Cc2ccccc2C(c2cnn(C)c2C)C1", "note": "(centres unmarked) [Compound P-31, 4-(1,5-dimethylpyrazol-4-yl)-N-pentyl-3,4-dihydro-1H-isoquinoline-2-carboxamide]", "values": [{"measurement": "control of Phaeosphaeria nodorum", "setting": "[4]", "value": "at least 80%"}]}, {"compound": "Cc1c([C@H]2CN(C(=O)CCCCCC(F)F)[C@@H](C)c3ccccc32)cnn1C", "note": "[Compound P-46, 1-[(1S,4S)-4-(1,5-dimethylpyrazol-4-yl)-1-methyl-3,4-dihydro-1H-isoquinolin-2-yl]-7,7-difluoro-heptan-1-one]", "values": [{"measurement": "control of Blumeria graminis f. sp. tritici", "setting": "[5]", "value": "at least 80%"}, {"measurement": "control of Botryotinia fuckeliana", "setting": "[2]", "value": "at least 80%"}, {"measurement": "control of Thanatephorus cucumeris", "setting": "[3]", "value": "at least 80%"}]}, {"compound": "Cc1c(C2CN(C(=O)NCCCCCF)Cc3ccccc32)cnn1C", "note": "(centres unmarked) [Compound P-49, 4-(1,5-dimethylpyrazol-4-yl)-N-(5-fluoropentyl)-3,4-dihydro-1H-isoquinoline-2-carboxamide]", "values": [{"measurement": "control of Phaeosphaeria nodorum", "setting": "[4]", "value": "at least 80%"}]}]}
